Data: PubChem BioAssay AID493212 (National Center for Advancing Translational Sciences (NCATS), 2011)
The inconclusive results got no clear call from the source; some entries with a clear call stand among them for comparison. A potency beside an inconclusive call is a rough fit, not a confirmed value. The source made the active and inactive calls. Calls come from the whole dose curve; as a rule, active = well fitted inhibition curve with a large enough effect; inconclusive = small, poorly fitted or top-dose-only effect; inactive = no such curve, though single readings can be large or run the other way.

Protein sequences, listed by entry. Tags and fused reporters are not part of them. Residues count along the entry.
UniProt B2RXH2, 1-337 limits assumed: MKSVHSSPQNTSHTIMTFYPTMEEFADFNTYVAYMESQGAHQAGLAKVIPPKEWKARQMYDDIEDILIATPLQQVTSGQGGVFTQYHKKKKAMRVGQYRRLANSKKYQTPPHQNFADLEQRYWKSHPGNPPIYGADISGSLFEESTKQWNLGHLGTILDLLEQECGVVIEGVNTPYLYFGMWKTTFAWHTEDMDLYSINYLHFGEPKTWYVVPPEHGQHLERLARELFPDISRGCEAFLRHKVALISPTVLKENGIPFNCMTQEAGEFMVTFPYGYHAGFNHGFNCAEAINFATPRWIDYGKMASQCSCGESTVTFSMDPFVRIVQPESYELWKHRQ

These compounds were tested against Lysine-specific demethylase 4E (Homo sapiens) (UniProt B2RXH2) (assay: Inhibitors of Human Jumonji Domain Containing 2E (JMJD2E): 8HQs - Round 1). Conditions: FDH-coupled NADH fluorescence (FDH is formaldehyde dehydrogenase); series mostly up to 57 µM.
Excerpt: The fine interplay among methylation states of several lysine residues on the tails of histone proteins is a major determinant of the transcriptional state of the associated DNA coding regions and is commonly referred to as the histone code. Histone lysine demethylases catalyze the removal of methyl groups from methylated lysine sidechains on histones H3 and H4, thus antagonizing the reactions catalyzed by histone lysine methyltransferases. […] In search for novel inhibitors of JMJD2E demethylase, a member of the largest set of histone demethylases belonging to the Fe(II) and 2-oxoglutarate oxygenase (2OG) superfamily, we performed a quantitative high-throughput screen (Inglese 2006) by using an assay which utilizes a trimethylated peptide substrate corresponding to a fragment of histone H3 (sequence ARKme3STGGK) with detection of the formaldehyde co-product in real time by a formaldehyde dehydrogenase (FDH) coupled reaction. FDH catalyzes oxidation of formaldehyde to formic acid with the concomitant reduction of the non-fluorescent beta-nicotinamide adenine dinucleotide hydrate (NAD+) cofactor to the fluorescent NADH co-product. This assay is a following of SAR around 8-hydroxyquinoline-based inhibitors of JMJD2E. References: Inglese, J., Auld, D., Jadhav, A., Johnson, R., Simeonov, A., Yasgar, A., Zheng, W. and Austin, C. Proc Natl Acad Sci USA 2006, 103, 11473-11478. N. R. Rose, S. S. Ng, J. Mecinovic, B. M. Lienard, S. H. Bello, Z. Sun, M. A. McDonough, U. Oppermann and C. J. Schofield, J Med Chem, 2008, 51, 7053-7056. Sakurai, M., Rose, N., Schultz, L., Quinn, A., Jadhav, A., Ng, S., Oppermann, U., Schofield, C.J. and Simeonov, A. Mol BioSystems 2009, in press. S. Michael, D. Auld, C. Klumpp, A. Jadhav, W. Zheng, N. Thorne, C. Austin, J. Inglese and A. Simeonov, Assay Drug Dev Technol, 2008, 6, 637-657. Assay Provider: Structural Genomics Consortium [SGC] Screening Center PI: Austin, C.P. Screening Center: NIH Chemical Genomics Center [NCGC]
Reagents and Controls: Ferrous ammonium sulfate, (+)-sodium L-ascorbate, beta-nicotinamide adenine dinucleotide hydrate (NAD+), Tween-20, formaldehyde dehydrogenase from P. putida (FDH), and disodium 2-oxoglutarate were from Sigma (St. Louis, MO). Black solid-bottom 384-well or 1,536-well assay plates were from Greiner Bio-One (Monroe, NC). Enzyme was supplied by Prof. Udo Oppermann, SGC-Oxford. The catalytic domain of human JMJD2E (residues 1-337) was produced as an N-terminally His6-tagged protein in E. coli, and purified by Ni-affinity chromatography and size-exclusion chromatography, and stored in HEPES 50 mM/ NaCl 500 mM pH 7.5, as reported in Rose 2008. The trimethylated histone peptide substrate ARK(me3)STGGK was synthesized and HPLC-purified by the Tufts University Core Facility (Boston, MA). Substrate solution (Sakurai 2009) contained 50 uM ARK(me3)STGGK, 0.00025 U/uL FDH, 50 uM 2-oxoglutarate, 250 uM NAD+, 1 mM ascorbate, and 10 uM ferrous ammonium sulfate. Controls and plate map: Buffer (150 mM HEPES pH 7.5 containing 0.01% Tween-20) in columns 3 and 4 as negative control (no enzyme) and 100 nM JMJD2E final concentration in columns 1,2, and 5-48. Assay Steps: Enzyme and buffer solutions (3 uL) were dispensed into a 1,536-well Greiner black solid-bottom assay plate. The library compounds (23 nL) were transferred using a Kalypsys pintool equipped with 1,536-pin array. The plate was incubated at room temperature (15 min), and then a 1 uL aliquot of substrate solution was added to initiate the reaction. The plate was transferred to ViewLux imager where an initial reading using standard UV optics (Ex 340 nm, Em 450 nm) was obtained. The plate was then removed from the reader, incubated for 30 minutes at room temperature, and returned to the reader for a second fluorescence reading. A fully automated robotic screening system (Kalypsys Inc, San diego, CA) was used to perform the above steps as described previously (Michael 2008). […]

Potency, active:
CC(=O)NC(C)c1cc(F)c2cccnc2c1O (stereo not drawn) 22.9 µM
CN(C)CCCNC(=O)c1ccc(-c2cc(O)c3ncccc3c2)cc1 32.4 µM
Oc1ccc(CCc2ccccc2F)c2cccnc12 10 µM

Potency, inactive:
CC(=O)NC(c1ccco1)c1cc(Cl)c2ccc(Cl)nc2c1O (stereo not drawn)
Oc1cc(NCc2ccc(Cl)cc2)cc2cccnc12
CCC(=O)NC(c1ccc(C)s1)c1cc(Cl)c2cccnc2c1O (stereo not drawn)
CCC(=O)NC(c1ccc(C)cc1)c1cc(Cl)c2cccnc2c1O (stereo not drawn)

Potency, inconclusive:
Cc1cnc2c(O)cccc2c1 14.5 µM [inhibitor, partial curve]
Oc1cc(Nc2ccccc2)cc2cccnc12 39.8 µM [inhibitor, single point]
Oc1ccc(-c2ccccc2F)c2cccnc12 9.13 µM [inhibitor, full curve, poor fit]
Oc1cccc2cc(CNc3ccccc3F)cnc12 3.24 µM [inhibitor, full curve, poor fit]
Oc1ccc(NCc2ccccc2F)c2cccnc12 2.57 µM [inhibitor, full curve, poor fit]
Oc1cc(NCCN2CCOCC2)cc2cccnc12 2.89 µM [inhibitor, full curve]

Part of the list above in order of heavy-atom count, descending:
Potency, inconclusive:
Oc1cccc2cc(CNc3ccccc3F)cnc12 3.24 µM [inhibitor, full curve, poor fit]
Oc1ccc(-c2ccccc2F)c2cccnc12 9.13 µM [inhibitor, full curve, poor fit]
Cc1cnc2c(O)cccc2c1 14.5 µM [inhibitor, partial curve]
